Experiment [1] has as its target human AXL with a cynomolgus monkey extracellular domain (ECD) (cynomolgus monkey (Macaca fascicularis); human). Nature of the experiment: flow cytometry; transfected HEK293T cells. (In general: In flow cytometry, cells or beads pass a laser one at a time.)
Experiment [2] addresses human AXL with a mouse ECD (mouse ECD in human AXL). Nature of the experiment: flow cytometry; transfected HEK293T cells.

Results are given in words; binding and its absence hold for the method and conditions named. Binding calls can cover weak binding; strength is not graded here.

B1: IgG1-AXL-148 (antibody, V domains shown)
VH: EVQLLESGGGLVQPGGSLRLSCAASGFTFSSYAMTWVRQAPGKGLEWVSAISISGGSTFYADSVKGRFTISRDNSKNTLYLQMNSLRAEDTAVYYCRGYSGYVYDAFDFWGQGTMVTVSS
VL: DIQMTQSPSSLSASVGDRVTITCRASQGISNWLAWYQQKPEKAPKSLIYAASSLQSGVPSRFSGSGSGTDFTLTISSLQPEDFATYYCQQYNSYPLTFGGGTKVEIK
B1: the binding result in experiment [1] is “binds”.

B2: IgG1-AXL-183 (antibody, V domains shown)
VH: QVQLQQWGAGLLKPSETLSLTCAVYGGSFSGYYWSWIRQPPGKGLEWIGEINQSGSTNYNPSLKSRVTISVDTSKNQFSLKLSSVTAADTSVYYCASGNWDHFFDYWGQGTLVTVSS
VL: DIQMTQSPSSVSASVGDRVTITCRASQGISSWLAWYQHKPGKAPKLLIYATSSLQSGVTSRFSGSGSGTDFTLTISSLQPEDFATYYCQQAKSFPWTFGQGTKVEIK
For B2, the binding result in experiment [1] and in experiment [2] was “binds” in each case.

B3: IgG1-AXL-183-N52Q (antibody, V domains shown)
VH: QVQLQQWGAGLLKPSETLSLTCAVYGGSFSGYYWSWIRQPPGKGLEWIGEIQQSGSTNYNPSLKSRVTISVDTSKNQFSLKLSSVTAADTSVYYCASGNWDHFFDYWGQGTLVTVSS
VL: DIQMTQSPSSVSASVGDRVTITCRASQGISSWLAWYQHKPGKAPKLLIYATSSLQSGVTSRFSGSGSGTDFTLTISSLQPEDFATYYCQQAKSFPWTFGQGTKVEIK
With B3, the binding entry in experiment [1] and in experiment [2] was “binds” in each case.

B4: IgG1-AXL-733 (antibody, V domains shown)
VH: QVQLVESGGGVVQPGRSLRLSCAASGFSFSTYAMHWVRQAPGKGLEWVAVISYDGDNKYSADSVKGRFTISRDNSKNTLYLQMNSLRAEDTAVYYCARGRKLGIDAFDIWGQGTMVTVSS
VL: AIQLTQSPSSLSASVGDRVTITCRASQGISSALAWYQQKPGKAPKLLIYDASSLESGVPSRFSGSGSGTDFTLTISGLQPEDFATYYCQQFNSYPFTFGPGTKVDIK
Take B4: in experiment [1], the binding entry is on record as “binds”.

Values taken from patent US20190030180A1.
